Assay results as given in PubChem BioAssay AID2685 (National Center for Advancing Translational Sciences (NCATS), 2010).
Out of some 320,000 compounds screened, about 2,100 (0.66%) were called active. The inconclusive results got no clear call from the source; some entries with a clear call stand among them for comparison. Calls come from the whole dose curve; as a rule, active = well fitted inhibition curve with a large enough effect in the signal ratio, with a control signal flat (not every such curve was filed as active); inconclusive = small, poorly fitted or top-dose-only effect, or effect the other way, or a change in a side signal; inactive = flat fitted curve, though single readings scatter; the % refers to the signal ratio. Potencies beside an inconclusive call are fits to weak or partial responses and may not hold up. Where a SMILES comes first, the peptide text is derived from it. [ ]: non-standard residue; d: D form. The star is where a group is joined. ξ: configuration not given here. Boc = CC(C)(C)OC(=O)*; NHBn = c1ccc(CN*)cc1; ξV = CC(C)C(N)C(=O)O
% is set by controls: 0 for no effect and ±100 for the full control effect; potency is the fitted concentration of half-maximal effect.

Test: qHTS Assay for Lipid Storage Modulators in Drosophila S3 Cells
Settings: BODIPY lipid droplet fluorescence, 18-24 h, cells fed with added oleic acid; lipid storage change, negative = inhibition: at 46.1 µM (top of the series) unless noted
Procedure, shortened: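 Laser-scanning cytometry quantifies lipid droplet accumulation (500–530 nm total intensity; droplet/cell object ratio) in oleic acid-fed (400 uM added) Drosophila S3 cells treated with a concentration series. 20 uM Triacsin C defined 100% inhibition.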
In the case of Cc1cc(C(=O)CN2CCN(CC(=O)Nc3ccc(F)cc3)CC2)c(C)n1C1CC1, the lipid storage change, negative = inhibition is reported as inconclusive: 40.2%. With Cc1sc2ncn(CC(=O)NCCCN3CCC(C)CC3)c(=O)c2c1S(=O)(=O)N1CCC(C)CC1 the lipid storage change, negative = inhibition was inconclusive: -64.6%. In the case of O=C(O)CN1C(=O)/C(=C\c2ccc(OC(=O)c3ccco3)cc2)SC1=S, the Potency is reported as inconclusive: 6.51 µM [activator, single point]. With O=C(Nc1ccccc1C(=O)N1CCOCC1)c1ccc(Cl)cc1 the lipid storage change, negative = inhibition was inconclusive: -18%. For COc1ccc(CCNC(=O)c2c(O)c3cccc4c3n(c2=O)CC4)cc1OC, the lipid storage change, negative = inhibition was inconclusive: 13.5%. For COC(=O)Nc1cc(C(=O)c2ccc(Cl)cc2Cl)c[nH]1, the lipid storage change, negative = inhibition was inconclusive: 13.5%. For CC(=O)c1ccc(OCc2cc(C(=O)N(C)C3CCOC3)no2)cc1 (stereo not given), the Potency was inconclusive: 0.231 µM [activator, full curve]. With CC1CCCC(NC(=O)Nc2cccs2)C1C (stereo not given) the Potency was inconclusive: 14.6 µM [rising, partial curve]. With CCOC(=O)c1c(-c2ccc(C)cc2)csc1NC(=O)c1cccc(N2C(=O)CCC2=O)c1 the lipid storage change, negative = inhibition was inconclusive: -20.5%. With COc1ccccc1N1C(=NC(=O)CCc2ccccc2)SC2CS(=O)(=O)CC21 (stereo not given) the lipid storage change, negative = inhibition was inconclusive: 201%. For COc1ccc(OC)c(NC(=O)CCc2nnc3ccc(NCc4ccco4)nn23)c1, the lipid storage change, negative = inhibition was inconclusive: 65.4%. For Nc1nnnn1/N=C/c1cc(Cl)cc(Cl)c1OCc1ccc(Cl)cc1Cl, the lipid storage change, negative = inhibition was inconclusive: 64.7%. For O=C1CN(C(=O)CSc2nc(-c3ccccc3)cs2)c2ccccc2N1, the Potency was inconclusive: 4.61 µM [activator, partial curve]. For COc1cc2c(=O)n(CCCN3CCOCC3)c(=S)[nH]c2c(OC)c1OC, the lipid storage change, negative = inhibition was inconclusive: 5.49%. With COc1ccc(C(OC(=O)c2ccco2)C(=O)NC2CCCC2)cc1 (stereo not given) the Potency was inconclusive: 10.3 µM [activator, single point]. With Cc1cccc(C)c1NC(=O)C(C)c1ccc(-c2ccccc2)c(F)c1 (stereo not given) the lipid storage change, negative = inhibition was inconclusive: 11.5%. For O=C(N/C=N/OCc1cccc(C(F)(F)F)c1)N1OC[C@@H]2COc3ccc4ccccc4c3[C@@H]21, the Potency was inconclusive: 6.51 µM [falling, single point]. With O=C(NC1CC(=O)N(c2cccc(F)c2)C1)N1CCN(C(=O)c2ccco2)CC1 (stereo not given) the lipid storage change, negative = inhibition was inconclusive: 15.6%. With CC(C)c1ccc(Oc2cccc(C(=O)/C(C#N)=C/N(C)C)c2)cc1 the lipid storage change, negative = inhibition was inconclusive: 218%. For Cc1ccc2c(c1)C(c1ccc(N3CCOCC3)cc1)=NNC(c1cccs1)=N2, the lipid storage change, negative = inhibition was inconclusive: 6.59%. For Cc1ccc(S(=O)(=O)Nc2nc3ccccc3nc2NCc2ccc3c(c2)OCO3)cc1C, the lipid storage change, negative = inhibition was “inactive”. For CN(Cc1ccc(Cl)cc1)C(=O)COC(=O)CSc1ccc([N+](=O)[O-])cc1, the Potency was inconclusive: 1.64 µM [falling, partial curve, poor fit]. With C=CCOc1ccccc1CNc1ccc2[nH]c(=O)[nH]c2c1 the lipid storage change, negative = inhibition was inconclusive: 35.8%. For O=[n+]1cc(-c2ccc(F)cc2)n([O-])c2c1CCC2, the Potency was inconclusive: 29.1 µM [cytotoxic, single point]. With CCCOc1ccc(N2C(=O)CC(SC(=NC)Nc3ccc(F)cc3)C2=O)cc1 (stereo not given) the Potency was inconclusive: 6.51 µM [activator, single point]. In the case of NC(=O)CC1C(=O)N(c2ccc(F)cc2)C(=O)N1NC(=O)CCc1ccccc1 (stereo not given), the lipid storage change, negative = inhibition is reported as inconclusive: 23.2%. With Cc1ccc2[nH]c(-c3ccccc3)cc(=O)c2c1 the Potency was inconclusive: 14.6 µM [activator, partial curve]. For O=C(O)c1ccccc1-c1ccccc1C(=O)NNc1ccc([N+](=O)[O-])cc1, the lipid storage change, negative = inhibition was inconclusive: 4.26%. For COC(=O)C1=C(C)NC2=C(C(=O)CCC2)C1c1cn(Cc2ccc(Br)cc2)nc1-c1ccccc1 (stereo not given), the Potency was inconclusive: 29.1 µM [activator, single point]. For COC(=O)c1c(-c2ccc(OC)c(OC)c2)csc1N, the Potency was inconclusive: 0.82 µM [activator, partial curve]. In the case of CC(=O)c1ccc(-c2ccc(C(=O)N3CCCc4ccccc43)o2)cc1, the lipid storage change, negative = inhibition is reported as inconclusive: 34.4%. With c1ccc(N2CCOCCOCCOCCOCC2)cc1 the lipid storage change, negative = inhibition was inconclusive: -6.93%. In the case of Cc1nc(=O)c(-c2ccccc2)c(C)n1CC1CCCO1 (stereo not given), the Potency is reported as inconclusive: 4.11 µM [activator, full curve]. For CCC(C)c1ccccc1O (stereo not given), the Potency was inconclusive: 16.4 µM [activator, single point]. For CCC(=O)N1CCN(c2ccccc2NC(=O)c2ccc([N+](=O)[O-])o2)CC1, the Potency was active: 10.3 µM. With Cc1cc(-n2cnnn2)cc(C)c1S(=O)(=O)NCCOc1ccccc1 the lipid storage change, negative = inhibition was “inactive”. In the case of Cc1ccc(NC(=O)c2cc(=O)[nH]c3ccc(S(=O)(=O)N4CCOCC4)cc23)nc1, the lipid storage change, negative = inhibition is reported as inactive: 11.8% [at 0.0737 µM]. In the case of COc1ccc(/C=C/C(=O)NCc2nc3ccccc3[nH]2)cc1OC, the lipid storage change, negative = inhibition is reported as inconclusive: -20.5%. In the case of O=c1oc2ccccc2cc1-c1ccc(O)cc1, the lipid storage change, negative = inhibition is reported as inconclusive: -18.9%. With COc1ccc(NC(=O)CSc2nc(N)cc(=O)[nH]2)cc1S(=O)(=O)N1CCCCC1 the Potency was inconclusive: 16.4 µM [activator, single point]. With CCCNC(=O)[C@H]1N2C(=O)c3c(ccc(OC)c3OC)C2SC1(C)C (stereo not given in full) the lipid storage change, negative = inhibition was inconclusive: -13.8%. With Cc1nc2c(sc3nc(N4CCOCC4)c4c(c32)CC(C)(C)OC4)c(-c2ccc(Cl)cc2)c1C(=O)O the Potency was active: 16.4 µM. For COc1ccc(C2(C(=O)Nc3ccc(C(=O)N4CCOCC4)cc3)CCOCC2)cc1, the lipid storage change, negative = inhibition was “inactive”. In the case of CC[C@@]12C(=O)N(c3ccccc3)C(=O)N1[C@H](c1ccc(OC)cc1)[C@@H]1C(=O)N(C(C)(C)C)C(=O)[C@@H]12, the lipid storage change, negative = inhibition is reported as inconclusive: 36.1%. In the case of CCOc1ccc(CNC(=O)CCCc2cn(C)c3ccccc23)cc1, the lipid storage change, negative = inhibition is reported as inconclusive: 45.4%. With Cc1c(C(=O)NCCNc2ncc(C(F)(F)F)cc2Cl)cccc1[N+](=O)[O-] the Potency was inconclusive: 29.1 µM [falling, single point]. For Cc1n[nH]c(=S)n(NC(=O)/C=C/C(=O)Nn2c(=S)[nH]nc(C)c2=O)c1=O, the lipid storage change, negative = inhibition was inconclusive: -7.29%. In the case of Cc1cnc(NC(=O)C2CC=CCC2)s1 (stereo not given), the Potency is reported as inconclusive: 0.116 µM [falling, partial curve, poor fit]. In the case of Cc1cc(O)ccc1NC(=O)CCN1C(=O)c2ccc([N+](=O)[O-])cc2C1=O, the Potency is reported as inconclusive: 0.103 µM [falling, full curve]. With COc1cc(C(=O)Nc2cccc(C)n2)ccc1OCC(=O)N1CCOCC1 the Potency was inconclusive: 29.1 µM [falling, single point]. In the case of Cc1ccc(NC(=O)COC(=O)CN2CCCCCC2=O)cc1C, the Potency is reported as inconclusive: 0.184 µM [falling, full curve, poor fit]. In the case of Cc1cccc(-c2c(NC(=O)c3ccco3)oc3ccc(Cl)cc3c2=O)c1, the lipid storage change, negative = inhibition is reported as inconclusive: -30.8%. In the case of CCOc1ccc(/C=N/Nc2ccccn2)cc1OC, the lipid storage change, negative = inhibition is reported as inconclusive: 49.5%. For O=C(Cn1cnc2cc([N+](=O)[O-])ccc2c1=O)NCc1ccccc1, the lipid storage change, negative = inhibition was inconclusive: -27.7%. For CCOC(=O)N1CCN(C(=O)c2ccccc2-c2ccccc2)CC1, the lipid storage change, negative = inhibition was inconclusive: -10.9%. In the case of Cc1cc(/C=N/n2cnnc2)c(C)n1-c1ccc(C(=O)O)cc1, the Potency is reported as inconclusive: 0.146 µM [activator, full curve, poor fit]. With Cc1ccc2cc(CNC(C)(C)C)c(=O)[nH]c2c1 the Potency was inconclusive: 3.26 µM [falling, partial curve]. With COCCNC(=O)C1CCC(CNS(=O)(=O)c2c(C)cc(C)cc2C)CC1 (stereo not given) the lipid storage change, negative = inhibition was inconclusive: 8.74%. For COc1ccc(/C=N/Nc2ccc([N+](=O)[O-])cc2S(=O)(=O)N2CCN(C)CC2)cc1, the lipid storage change, negative = inhibition was inconclusive: -25.9%. In the case of COc1ccc(NC(=O)c2ccc3c(=O)n(CC4CCCO4)c(=S)[nH]c3c2)c(OC)c1 (stereo not given), the lipid storage change, negative = inhibition is reported as “inactive”. In the case of O=C1COc2ccc(C(=O)COC(=O)c3ccc4ccccc4n3)cc2N1, the lipid storage change, negative = inhibition is reported as inconclusive: 10.7%. In the case of COc1ccc(OC)c(NC(=O)c2ccc(-c3cccs3)cc2)c1, the lipid storage change, negative = inhibition is reported as inconclusive: 1.67%. With COc1cc(C(=O)NNC(=O)COc2ccc(Cl)cc2)ccc1OCC(=O)N1CCOCC1 the lipid storage change, negative = inhibition was inconclusive: 17.4%. For CCn1c(SCC(=O)c2cc(C)n(CC3CCCO3)c2C)nc2ccccc21 (stereo not given), the lipid storage change, negative = inhibition was inconclusive: -2.91%. With CC(=O)c1ccc(S(=O)(=O)Nc2ccc(C(=O)N(C)CC(=O)Nc3cccc(C)c3C)cc2)cc1 the lipid storage change, negative = inhibition was inconclusive: 115%. With COc1cc(S(=O)(=O)N2CCOCC2)cc(C(=O)OCC(=O)NCc2ccco2)c1OC the lipid storage change, negative = inhibition was inconclusive: -21.4%. For COc1cc(CNC2CCCC2)cc(OC)c1, the lipid storage change, negative = inhibition was inconclusive: -15.5%. In the case of COC(=O)c1ccccc1NC(=O)Nc1cccs1, the lipid storage change, negative = inhibition is reported as inconclusive: 8.75%. In the case of CN1C(=O)C(C)(C)c2cc(S(=O)(=O)NCc3ccc(Cl)cc3)ccc21, the Potency is reported as inconclusive: 8.2 µM [falling, single point]. In the case of CC(=O)Oc1cc2c(C(=O)NCCCN3CCOCC3)c(C)oc2c2ccccc12, the lipid storage change, negative = inhibition is reported as inconclusive: 17.7%. With CCCC(=O)N1CCCC(C(=O)c2ccc(OC)c(OC)c2)C1 (stereo not given) the lipid storage change, negative = inhibition was inconclusive: 30.2%. In the case of CCOc1ccc(Oc2ccccc2NC(=O)CN2C(=O)NC3(CCCC3)C2=O)cc1, the lipid storage change, negative = inhibition is reported as “inconclusive”. For Cc1nnc(SCC(=O)Nc2ccccc2)n(N)c1=O, the lipid storage change, negative = inhibition was inconclusive: 0.346%. For Cc1ccc(CNC(=O)CCNC(=O)N2CCn3c2nc2ccccc23)cc1, the lipid storage change, negative = inhibition was inconclusive: -16.2%. With CC(C)C(NC(=O)CNC(=O)OC(C)(C)C)C(=O)NCc1ccccc1 (stereo not drawn) (Boc-Gly-[ξV]-NHBn) the lipid storage change, negative = inhibition was inconclusive: -28%.
